Reference: patent US9211284B2, “Diagnosis and treatment of P.R.I.C.E. syndrome” (priority 2013, dated 2015)
At least one compound was matched to its structure with a doubt left.

Tested on: patient having P.R.I.C.E. Syndrome
Test: Example 1: case report of a patient with P.R.I.C.E. Syndrome, earlier medications then KAPVAY (plus inositol)
Conditions: Example 1 patient, medications tried before the P.R.I.C.E. diagnosis
Text: The patient was tried on many psychostimulant medications, which are the gold standard for treatment of ADHD. Medications in this class include: Adderall/XR, Focalin/XR, Dexedrine, Vyvanse, Ritalin/LA/ER, Metadate ER/CD, Concerta and Daytrana.
By convention, psychiatrists refer to this phenomenon as Bipolar III or hypomania induced by medication which predicts and unmasks the development of spontaneous mood swings of genuine Bipolar to come for the patient later in life.
Nevertheless, the psychiatrist tried a series of atypical antipsychotics, including Zyprexa, Geodon, Seroquel as well as two FDA approved drugs for treatment of irritability in Autistic Disorder, Abilify and Risperdal.
The Applicant tapered and discontinued the aforementioned medications in the patient. The Applicant then titrated up KAPVAY® as follows: 0.1 mg at bedtime for a week; next, 0.1 mg twice a day for a week; next, 0.1 mg in the morning and 0.2 mg at night for one week; and finally 0.2 mg twice a day going forward.

[Li] [Lithium]
effect on the patient's symptoms (agitation, impulsivity, concentration, rigidity): ineffective
